# The source gives many values for each of these; only a part stands here.
# System: moderate-to-severe chronic spontaneous urticaria (CSU)
# Experiment: Phase 2 CSU study: itch severity score over 7 days (ISS7)
# Format: in vivo, human
# Conditions: Omalizumab-naïve population
# Source text: The study comprises a 12 week, randomized, double-blind, placebo-controlled, multi-center, dose-ranging efficacy and safety phase, followed by a 40 week open label extension (OLE) phase (see FIG. 1). The study consists of three phases and an optional OLE phase. […] Clinically, CSU is characterized by the spontaneous and recurrent appearance of pruritic hives. The proposed primary endpoints were the UAS7 at Week 12 in EU and EU reference countries and the ISS7 in the US. Regardless of where a participant was from, all assessments were the same. The UAS7 score is a composite score containing both the HSS7 and the ISS7. This allowed a global assessment of the two key components of urticaria: hives and itch. […] The UAS is a validated PRO measure. […] The daily UAS scores range from 0 to 6 point/day. […] Patients were to complete the UAS using the e-diary. […] The following secondary endpoints were to be analyzed using the same approach as for the primary endpoint: • Change from baseline in UAS7 at Week 4 • Change from baseline in UAS7 at Week 12 (for US and US reference countries) • Change from baseline in ISS7 at Week 12 (except US and US reference countries) • Change from baseline in HSS7 at Week 12
# [1] = 400 mg BID, Age group (years) ≥65
# [2] = 400 mg BID, Baseline BMI (kg/m^2) <25
# [3] = 400 mg BID, Baseline BMI (kg/m^2) >25-<30
# [4] = 400 mg BID, Baseline BMI (kg/m^2) ≥30
# [5] = 400 mg BID, Baseline weight (kg) <60
# [6] = 400 mg BID, Baseline weight (kg) <72.9 (Median)
# [7] = 400 mg BID, Baseline weight (kg) ≥60-<90
# [8] = 400 mg BID, Baseline weight (kg) ≥72.9 (Median)
# [9] = 400 mg BID, Baseline weight (kg) ≥90
# [10] = 400 mg QPM, Age group (years) ≥65
# [11] = 400 mg QPM, Baseline BMI (kg/m^2) <25
# [12] = 400 mg QPM, Baseline BMI (kg/m^2) >25-<30
# [13] = 400 mg QPM, Baseline BMI (kg/m^2) ≥30
# [14] = 400 mg QPM, Baseline weight (kg) <60
# [15] = 400 mg QPM, Baseline weight (kg) <72.9 (Median)
# [16] = 400 mg QPM, Baseline weight (kg) ≥60-<90
# [17] = 400 mg QPM, Baseline weight (kg) ≥72.9 (Median)
# [18] = 400 mg QPM, Baseline weight (kg) ≥90
# [19] = 400 mg TID, Baseline BMI (kg/m^2) <25
# [20] = 400 mg TID, Baseline BMI (kg/m^2) >25-<30
# [21] = 400 mg TID, Baseline BMI (kg/m^2) ≥30
# [22] = 400 mg TID, Baseline weight (kg) <60
# [23] = 400 mg TID, Baseline weight (kg) <72.9 (Median)
# [24] = 400 mg TID, Baseline weight (kg) ≥60-<90
smiles,measurement,setting,value
"CC(C)(C=C(C#N)C(=O)N1CCC[C@@H](n2nc(-c3ccc(Oc4ccccc4)cc3F)c3c(N)ncnc32)C1)N1CCN(C2COC2)CC1 [rilzabrutinib, (R)-2-[3-[4-amino-3-(2-fluoro-4-phenoxy-phenyl)pyrazolo[3,4-d]pyrimidin-1-yl]piperidine-1-carbonyl]-4-methyl-4-[4-(oxetan-3-yl)piperazin-1-yl]pent-2-enenitrile]","Change from Baseline in ISS7 at Week 12, LS Mean",[1],−13.32
same,"Change from Baseline in ISS7 at Week 12, LS Mean Diff vs. placebo",[1],−14.22
same,"Change from Baseline in ISS7 at Week 12, LS Mean Diff vs. placebo","400 mg BID, Baseline BHRA BHRA−",−1.10
same,"Change from Baseline in ISS7 at Week 12, LS Mean",[2],−7.22
same,"Change from Baseline in ISS7 at Week 12, LS Mean Diff vs. placebo",[2],−2.81
same,"Change from Baseline in ISS7 at Week 12, Mean",[2],−7.34
same,"Change from Baseline in ISS7 at Week 12, LS Mean",[3],−6.90
same,"Change from Baseline in ISS7 at Week 12, LS Mean Diff vs. placebo",[3],−1.35
same,"Change from Baseline in ISS7 at Week 12, Mean",[3],−7.10
same,"Change from Baseline in ISS7 at Week 12, LS Mean",[4],−8.24
same,"Change from Baseline in ISS7 at Week 12, Mean",[4],−8.00
same,"Change from Baseline in ISS7 at Week 12, LS Mean",[5],−5.70
same,"Change from Baseline in ISS7 at Week 12, LS Mean Diff vs. placebo",[5],−1.37
same,"Change from Baseline in ISS7 at Week 12, Mean",[5],−5.29
same,"Change from Baseline in ISS7 at Week 12, LS Mean",[6],−6.60
same,"Change from Baseline in ISS7 at Week 12, LS Mean Diff vs. placebo",[6],−0.84
same,"Change from Baseline in ISS7 at Week 12, Mean",[6],−6.55
same,"Change from Baseline in ISS7 at Week 12, LS Mean",[7],−7.08
same,"Change from Baseline in ISS7 at Week 12, LS Mean Diff vs. placebo",[7],−1.01
same,"Change from Baseline in ISS7 at Week 12, Mean",[7],−7.71
same,"Change from Baseline in ISS7 at Week 12, LS Mean",[8],−8.28
same,"Change from Baseline in ISS7 at Week 12, LS Mean Diff vs. placebo",[8],−3.62
same,"Change from Baseline in ISS7 at Week 12, Mean",[8],−8.75
same,"Change from Baseline in ISS7 at Week 12, LS Mean",[9],−10.60
same,"Change from Baseline in ISS7 at Week 12, LS Mean Diff vs. placebo",[9],−5.46
same,"Change from Baseline in ISS7 at Week 12, Mean",[9],−10.67
same,"Change from Baseline in ISS7 at Week 12, LS Mean","400 mg BID, Gender Female",−6.92
same,"Change from Baseline in ISS7 at Week 12, LS Mean Diff vs. placebo","400 mg BID, Gender Female",−0.62
same,"Change from Baseline in ISS7 at Week 12, LS Mean","400 mg BID, Gender Male",−8.42
same,"Change from Baseline in ISS7 at Week 12, LS Mean Diff vs. placebo","400 mg BID, Gender Male",−4.88
same,"Change from Baseline in ISS7 at Week 12, LS Mean",[10],2.48
same,"Change from Baseline in ISS7 at Week 12, LS Mean Diff vs. placebo",[10],1.58
same,"Change from Baseline in ISS7 at Week 12, LS Mean Diff vs. placebo","400 mg QPM, Baseline BHRA BHRA−",0.83
same,"Change from Baseline in ISS7 at Week 12, LS Mean",[11],−3.64
same,"Change from Baseline in ISS7 at Week 12, LS Mean Diff vs. placebo",[11],0.77
same,"Change from Baseline in ISS7 at Week 12, Mean",[11],−4.18
same,"Change from Baseline in ISS7 at Week 12, LS Mean",[12],−3.43
same,"Change from Baseline in ISS7 at Week 12, LS Mean Diff vs. placebo",[12],2.13
same,"Change from Baseline in ISS7 at Week 12, Mean",[12],−5.60
same,"Change from Baseline in ISS7 at Week 12, LS Mean",[13],−7.49
same,"Change from Baseline in ISS7 at Week 12, Mean",[13],−8.09
same,"Change from Baseline in ISS7 at Week 12, LS Mean",[14],−4.12
same,"Change from Baseline in ISS7 at Week 12, LS Mean Diff vs. placebo",[14],0.22
same,"Change from Baseline in ISS7 at Week 12, Mean",[14],−4.71
same,"Change from Baseline in ISS7 at Week 12, LS Mean",[15],−3.98
same,"Change from Baseline in ISS7 at Week 12, LS Mean Diff vs. placebo",[15],1.77
same,"Change from Baseline in ISS7 at Week 12, Mean",[15],−4.51
same,"Change from Baseline in ISS7 at Week 12, LS Mean",[16],−4.36
same,"Change from Baseline in ISS7 at Week 12, LS Mean Diff vs. placebo",[16],1.71
same,"Change from Baseline in ISS7 at Week 12, Mean",[16],−5.28
same,"Change from Baseline in ISS7 at Week 12, LS Mean",[17],−5.86
same,"Change from Baseline in ISS7 at Week 12, LS Mean Diff vs. placebo",[17],−1.21
same,"Change from Baseline in ISS7 at Week 12, Mean",[17],−7.22
same,"Change from Baseline in ISS7 at Week 12, LS Mean",[18],−8.76
same,"Change from Baseline in ISS7 at Week 12, LS Mean Diff vs. placebo",[18],−3.62
same,"Change from Baseline in ISS7 at Week 12, LS Mean","400 mg QPM, Gender Female",4.77
same,"Change from Baseline in ISS7 at Week 12, LS Mean Diff vs. placebo","400 mg QPM, Gender Female",1.52
same,"Change from Baseline in ISS7 at Week 12, LS Mean","400 mg QPM, Gender Male",−4.68
same,"Change from Baseline in ISS7 at Week 12, LS Mean Diff vs. placebo","400 mg QPM, Gender Male",−1.14
same,"Change from Baseline in ISS7 at Week 12, LS Mean","400 mg TID, Age group (years) ≥65",−12.67
same,"Change from Baseline in ISS7 at Week 12, LS Mean Diff vs. placebo","400 mg TID, Baseline BHRA BHRA−",−3.33
same,"Change from Baseline in ISS7 at Week 12, LS Mean",[19],−9.17
same,"Change from Baseline in ISS7 at Week 12, LS Mean Diff vs. placebo",[19],−4.75
same,"Change from Baseline in ISS7 at Week 12, Mean",[19],−9.13
same,"Change from Baseline in ISS7 at Week 12, LS Mean",[20],−8.43
same,"Change from Baseline in ISS7 at Week 12, LS Mean Diff vs. placebo",[20],−2.88
same,"Change from Baseline in ISS7 at Week 12, Mean",[20],−10.74
same,"Change from Baseline in ISS7 at Week 12, LS Mean",[21],−10.85
same,"Change from Baseline in ISS7 at Week 12, Mean",[21],−11.88
same,"Change from Baseline in ISS7 at Week 12, LS Mean Diff vs. placebo",[22],6.74
same,"Change from Baseline in ISS7 at Week 12, Mean",[22],−11.17
same,"Change from Baseline in ISS7 at Week 12, LS Mean",[23],−9.97
same,"Change from Baseline in ISS7 at Week 12, LS Mean Diff vs. placebo",[23],−4.22
same,"Change from Baseline in ISS7 at Week 12, Mean",[23],−11.22
same,"Change from Baseline in ISS7 at Week 12, LS Mean",[24],−8.41
same,"Change from Baseline in ISS7 at Week 12, LS Mean Diff vs. placebo",[24],−2.35
same,"Change from Baseline in ISS7 at Week 12, Mean",[24],−9.91
same,"Change from Baseline in ISS7 at Week 12, LS Mean","400 mg TID, Baseline weight (kg) ≥72.9 (Median)",−8.80
